PubChem BioAssay AID1259405 | NCATS, 2018

- Screen: 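Knock-downs that lift recombinant protein yield in hamster ovary cells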 (primary screen)
- Cells: Chinese hamster CHO-K1 ovary cells with stable secreted eGFP expression
- Reagent: single siRNA against mouse genes, 0.8 pmol siRNA per well (2 µl of 400 nM stock)
- Duration: 3 days
- Measured: 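Per-well intracellular GFP measured by laser scanning cytometry, plus viability from ATP luminescence, each relative to plate median of non-targeting control wells, in %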
- Reading the numbers: GFP, % of control: higher = more GFP per well, higher productivity; viability (ATP), % of control: higher = more viable cells (more ATP)
- Hit rule: 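a knock-down is called active if GFP reaches 120% or more of non-targeting control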
The whole screen tested about 50,000 reagents; shown is a part drawn at random. Of all reagents, about 4,000 (8%) are marked active. 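Mouse siRNA library applied to hamster cells; one well for each siRNA.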 Reagents against one gene are numbered here. No sequences are given here.

target	reagent	GFP, % of control	viability (ATP), % of control	Outcome
C2cd2	1	95.8	82.8	inactive
C2cd2	2	79.1	87.3	inactive
C2cd2	3	101	97.1	inactive
Kcnt1	1	41.9	51.5	inactive
Kcnt1	2	62.5	100	inactive
Kcnt1	3	75	90.5	inactive
Sanbr	1	70.5	84	inactive
Sanbr	2	69.7	98.1	inactive
Sanbr	3	103	81.8	inactive
Yju2	1	97.1	96.5	inactive
Yju2	2	76.9	39.8	inactive
Yju2	3	44.8	73	inactive
Cabs1	1	107	79.3	inactive
Cabs1	2	109	60	inactive
Cabs1	3	46.8	59.8	inactive
Calm4	1	88.8	102	inactive
Calm4	2	69.8	70.8	inactive
Psma4	1	51.6	44.8	inactive
Psma4	2	6.29	3.27	inactive
Psma4	3	97.5	48	inactive
Tns4	1	46	49.6	inactive
Tns4	2	82.7	35	inactive
Tns4	3	76.5	65.5	inactive
Defb38	1	50.8	78.7	inactive
Defb38	2	46.1	29	inactive
Defb38	3	91.1	73.6	inactive
Ptpn12	1	78.3	81.8	inactive
Ptpn12	2	128	62.4	active
Ptpn12	3	87.8	70.5	inactive
Or12e10	1	83.5	75.7	inactive
Or12e10	2	55.4	59.4	inactive
Or12e10	3	77.7	33.7	inactive
Anapc1	1	68.7	49.4	inactive
Anapc1	2	79.6	71.7	inactive
Anapc1	3	89.8	77.1	inactive
Trerf1	1	84.1	85.8	inactive
Trerf1	2	59.6	77.3	inactive
Trerf1	3	65.9	45	inactive
Ralbp1	1	67.4	99.8	inactive
Ralbp1	2	75.2	91.2	inactive
Ddit3	1	87.6	86.5	inactive
Ddit3	2	103	72.7	inactive
Ddit3	3	124	101	active
Cyld	1	65.4	67.8	inactive
Cyld	2	95.9	63.4	inactive
Cyld	3	96.7	83.8	inactive
Ripply1	1	50.2	46.6	inactive
Ripply1	2	24.7	32.3	inactive
Ripply1	3	72.6	92.8	inactive
Sox13	1	50.4	65.3	inactive
Sox13	2	20.9	30.5	inactive
Sox13	3	79.8	91.3	inactive
1700084J12Rik	1	81.4	53.4	inactive
1700084J12Rik	2	143	79.2	active
1700084J12Rik	3	93.5	79.4	inactive
Kcnq3	1	83.9	76.9	inactive
Kcnq3	2	47.5	64.5	inactive
Kcnq3	3	81.6	57.3	inactive
Exosc9	1	68.8	61	inactive
Exosc9	2	88.2	84.5	inactive
Exosc9	3	34.6	45.4	inactive
Rasgrp1	1	84.7	84.4	inactive
Rasgrp1	2	78.9	61.4	inactive
Rasgrp1	3	68.3	68.1	inactive
Cfhr4	1	60.7	66.9	inactive
Cfhr4	2	62.5	69.8	inactive
Cfhr4	3	81.8	43.8	inactive
Diaph2	1	45.7	51.3	inactive
Diaph2	2	69.4	65.7	inactive
Diaph2	3	63.8	96.4	inactive
Tollip	1	98.6	73.4	inactive
Tollip	2	94.6	95.1	inactive
Tollip	3	134	174	active
Bpifb3	1	67.7	64.7	inactive
Bpifb3	2	62.1	49.8	inactive
Bpifb3	3	50.5	63.7	inactive
Tmem259	1	121	107	active
Tmem259	2	99.8	93.2	inactive
Tmem259	3	130	100	active
Adarb1	1	46.5	63.2	inactive
Adarb1	2	83.7	101	inactive
Adarb1	3	61.3	45.3	inactive
Ina	1	51.1	73.3	inactive
Ina	2	56.8	65	inactive
Ina	3	85.9	79.9	inactive

8 entries from above, limited to “viability (ATP), % of control”.
Ptpn12 #2	62.4
Ptpn12 #3	70.5
Or12e10 #1	75.7
Or12e10 #2	59.4
Or12e10 #3	33.7
Anapc1 #1	49.4
Anapc1 #2	71.7
Anapc1 #3	77.1
